Laboratory results from doi:10.1101/2020.04.26.062372.
These are yes or no findings as the source states them, for the method shown. Binding seen in cells or lysates may run through a third protein. Some results given as binding are weak or reduced against the parent protein; the word gives no strength.

Amino acid sequences for entries named in this document (tags omitted). Residues count along the entry.
UniProt P47871, residues 26-477: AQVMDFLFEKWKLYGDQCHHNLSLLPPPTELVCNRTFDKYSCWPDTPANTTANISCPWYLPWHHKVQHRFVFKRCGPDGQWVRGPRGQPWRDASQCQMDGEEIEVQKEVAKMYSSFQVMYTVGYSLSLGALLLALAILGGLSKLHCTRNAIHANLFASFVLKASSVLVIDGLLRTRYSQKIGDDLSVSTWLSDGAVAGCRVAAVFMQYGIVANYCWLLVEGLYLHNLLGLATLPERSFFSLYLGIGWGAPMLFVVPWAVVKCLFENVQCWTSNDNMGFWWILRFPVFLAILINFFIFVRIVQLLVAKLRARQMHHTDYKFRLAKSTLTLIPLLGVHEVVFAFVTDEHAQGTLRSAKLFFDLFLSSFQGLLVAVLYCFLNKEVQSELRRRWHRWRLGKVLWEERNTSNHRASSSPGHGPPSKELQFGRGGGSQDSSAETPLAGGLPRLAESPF
UniProt P43220, residues 24-463: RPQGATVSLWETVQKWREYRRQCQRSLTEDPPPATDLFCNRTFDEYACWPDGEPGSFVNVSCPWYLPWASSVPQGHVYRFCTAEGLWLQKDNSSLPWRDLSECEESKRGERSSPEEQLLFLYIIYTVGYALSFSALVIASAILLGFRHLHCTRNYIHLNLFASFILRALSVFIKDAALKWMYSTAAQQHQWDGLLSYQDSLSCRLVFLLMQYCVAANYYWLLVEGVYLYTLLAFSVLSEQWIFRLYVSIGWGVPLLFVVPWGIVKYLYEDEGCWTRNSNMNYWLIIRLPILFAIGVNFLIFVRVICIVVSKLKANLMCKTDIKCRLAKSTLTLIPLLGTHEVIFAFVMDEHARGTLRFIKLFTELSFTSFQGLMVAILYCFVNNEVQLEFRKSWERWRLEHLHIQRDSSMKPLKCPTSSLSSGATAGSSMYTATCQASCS
UniProt P32121: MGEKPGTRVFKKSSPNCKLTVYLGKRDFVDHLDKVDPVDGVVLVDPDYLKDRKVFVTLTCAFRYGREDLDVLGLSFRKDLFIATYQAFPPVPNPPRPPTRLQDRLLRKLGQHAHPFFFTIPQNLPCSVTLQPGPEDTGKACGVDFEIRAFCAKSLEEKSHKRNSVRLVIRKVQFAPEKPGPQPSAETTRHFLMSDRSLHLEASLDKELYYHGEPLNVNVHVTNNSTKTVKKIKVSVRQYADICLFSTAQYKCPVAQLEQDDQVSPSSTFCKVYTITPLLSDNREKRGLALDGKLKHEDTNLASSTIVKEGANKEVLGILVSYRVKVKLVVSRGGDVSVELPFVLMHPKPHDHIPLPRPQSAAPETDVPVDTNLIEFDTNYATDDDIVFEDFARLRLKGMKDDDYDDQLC

Columns and labels:
Assay in all cases: split reporter
[1] = molecular target: GCGR-SmBiT (glucagon receptor tagged at the C-terminus with SmBiT) (UniProt P47871)
[2] = molecular target: GLP-1R-SmBiT (glucagon-like peptide-1 receptor tagged at the C-terminus with SmBiT) (UniProt P43220)
[3] = molecular target: human GCGR in PathHunter β-arrestin-2 CHO-K1 cells (human) (UniProt P47871)
[4] = molecular target: human GLP-1R in PathHunter β-arrestin-2 CHO-K1 cells (human) (UniProt P43220)

| Substance | binding [1] | binding [2] | binding [3] | binding [4] |
| --- | --- | --- | --- | --- |
| LgBiT-β-arrestin-2 (from UniProt P32121 1-409) | binds | binds |  |  |
| β-arrestin-2 of PathHunter β-arrestin-2 CHO-K1 cells (from UniProt P32121 1-409) |  |  | binds | binds |
